These results are taken from US20170291905A1, “ARGININE METHYLTRANSFERASE INHIBITORS AND USES THEREOF” (Epizyme, Inc., priority 2014, published 2017).

Chains of the proteins cited; added tags and fusions are not shown. A line that says so, or that is headed by a name, gives the form on record, which may keep a tag or linker. Residues count along the entry.
UniProt Q99873, 1-371 with tags or gaps: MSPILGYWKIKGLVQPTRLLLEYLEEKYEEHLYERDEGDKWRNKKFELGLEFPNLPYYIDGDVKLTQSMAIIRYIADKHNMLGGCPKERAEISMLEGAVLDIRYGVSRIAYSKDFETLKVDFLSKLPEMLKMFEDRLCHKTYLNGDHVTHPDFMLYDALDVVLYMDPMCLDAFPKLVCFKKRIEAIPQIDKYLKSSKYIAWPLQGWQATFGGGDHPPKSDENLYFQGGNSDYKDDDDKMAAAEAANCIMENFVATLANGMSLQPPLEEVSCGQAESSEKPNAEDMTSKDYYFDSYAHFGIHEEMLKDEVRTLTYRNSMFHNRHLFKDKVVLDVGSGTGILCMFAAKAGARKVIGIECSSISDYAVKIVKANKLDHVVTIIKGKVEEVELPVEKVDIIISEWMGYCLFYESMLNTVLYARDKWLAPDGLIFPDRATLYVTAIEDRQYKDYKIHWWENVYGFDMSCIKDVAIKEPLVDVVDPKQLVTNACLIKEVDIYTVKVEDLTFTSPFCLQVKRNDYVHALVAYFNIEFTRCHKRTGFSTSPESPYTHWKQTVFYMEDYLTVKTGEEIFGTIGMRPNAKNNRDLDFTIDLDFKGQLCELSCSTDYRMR

For the assay, the target named is full-length human PRMT1 isoform 1 (GST-tagged) (Homo sapiens, UniProt Q99873). As to the kind of experiment: PRMT1 biochemical assay (3H-SAM Flashplate, histone H4 36-50 peptide). Particulars: read-out: PRMT1 IC50; 0.5 nM PRMT1, 30 min preincubation, 20 nM peptide. The source says: S-adenosylmethionine (SAM), S-adenosylhomocysteine (SAH), bicine, Tween20, dimethylsulfoxide (DMSO), bovine skin gelatin (BSG), and Tris(2-carboxyethyl)phosphine hydrochloride solution (TCEP) were purchased from Sigma-Aldrich at the highest level of purity possible. ^3H-SAM was purchase from American Radiolabeled Chemicals with a specific activity of 80 Ci/mmol. 384-well streptavidin Flashplates were purchased from PerkinElmer.
Peptide representative of human histone H4 residues 36-50 was synthesized with an N-terminal linker-affinity tag motif and a C-terminal amide cap by 21st Century Biochemicals. The peptide was purified by high-performance liquid chromatography (HPLC) to greater than 95% purity and confirmed by liquid chromatography mass spectrometry (LC-MS). The sequence was Biot-Ahx-RLARRGGVKRISGLI-amide (SEQ ID NO.:1).
Full-length human PRMT1 isoform 1 (NM_001536.5) transcript clone was amplified from an HEK 293 cDNA library, incorporating flanking 5′ sequence encoding a FLAG tag (DYKDDDDK) (SEQ ID NO.:2) fused directly to Met 1 of PRMT1. The amplified gene was subcloned into pFastBacI (Life Technologies) modified to encode an N-terminal GST tag and a TEV cleavage sequence
Recombinant baculovirus were generated according to Bac-to-Bac kit instructions (Life Technologies). […]

The structures given here were assigned with low confidence; some may be wrong.

Broadly, the IC50 is the concentration that inhibits the measured activity by half. As for `CNCCN(C)Cc1ncsc1[C@H]1CC[C@@]2(CC1)CC(C)(C)CO2` [compound 83], the IC50 worked out at 8.48 nM.
